This note sets out measurements from PMC9841675.

The chains behind the UniProt entries cited, without tags or fusion partners. Where a name states a change or a piece, a line headed by the entry shows the natural chain unless it says otherwise.
UniProt Q13547: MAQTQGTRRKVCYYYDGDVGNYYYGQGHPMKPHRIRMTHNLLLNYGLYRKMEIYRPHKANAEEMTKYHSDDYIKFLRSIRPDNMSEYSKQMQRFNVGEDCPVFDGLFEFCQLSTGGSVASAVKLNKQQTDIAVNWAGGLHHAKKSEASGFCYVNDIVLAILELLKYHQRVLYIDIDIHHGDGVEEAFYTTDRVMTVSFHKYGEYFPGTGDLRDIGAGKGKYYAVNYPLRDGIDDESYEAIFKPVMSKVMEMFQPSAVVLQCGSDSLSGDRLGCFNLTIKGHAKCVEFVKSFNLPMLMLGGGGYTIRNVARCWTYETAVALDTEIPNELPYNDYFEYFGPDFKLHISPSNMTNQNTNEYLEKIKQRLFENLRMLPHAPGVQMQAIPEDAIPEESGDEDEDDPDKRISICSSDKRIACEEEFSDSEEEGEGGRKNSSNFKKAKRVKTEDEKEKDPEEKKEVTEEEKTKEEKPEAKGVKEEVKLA
UniProt Q9GZN2: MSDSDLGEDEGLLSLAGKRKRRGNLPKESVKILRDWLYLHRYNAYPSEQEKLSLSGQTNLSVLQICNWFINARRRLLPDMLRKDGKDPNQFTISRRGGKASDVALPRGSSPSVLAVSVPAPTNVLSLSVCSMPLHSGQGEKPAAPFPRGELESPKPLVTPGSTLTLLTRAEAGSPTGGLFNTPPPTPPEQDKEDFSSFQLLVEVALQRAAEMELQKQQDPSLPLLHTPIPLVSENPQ

For the assay, the target named is HDAC1, endogenous (human (endogenous in H1299)) (UniProt Q13547). Kind of assay: co-IP; lysates of wild type (control) and Flag-TGIF2^AA-overexpressing H1299 cells incubated with protein A/G agarose beads and antibody overnight at 4 °C, washed with PBS; IP with anti-HDAC1 and anti-TGIF2 (control cells) or anti-HDAC1 and anti-Flag (TGIF2^AA cells); western blot. A general note: In western blotting, separated proteins are transferred to a membrane and probed.

These are yes or no findings as the source states them, for the method shown. In cells and extracts the contact can be indirect. Some entries that bind do so weakly or less than the wild type.

With “Flag-TGIF2^AA (phosphorylation-deficient TGIF2 mutant, T182A and T186A) (from UniProt Q9GZN2 1-237)”, the binding entry is “no binding”.

As for “phosphorylated TGF-β-induced factor homeobox 2 (p-TGIF2), endogenous (from UniProt Q9GZN2 1-237)”, the binding result is listed as “binds”.
